Reference: doi:10.1101/2023.04.19.537449
No constants are given. Whether binding was seen depends on the method and setting. Binding seen in cells or lysates may run through a third protein. Some results given as binding are weak or reduced against the parent protein; the word gives no strength. Tags and fused reporters may be left off the sequences shown.

Sequences of proteins named here, by UniProt entry; tags and fusion partners are left off.
UniProt P46937: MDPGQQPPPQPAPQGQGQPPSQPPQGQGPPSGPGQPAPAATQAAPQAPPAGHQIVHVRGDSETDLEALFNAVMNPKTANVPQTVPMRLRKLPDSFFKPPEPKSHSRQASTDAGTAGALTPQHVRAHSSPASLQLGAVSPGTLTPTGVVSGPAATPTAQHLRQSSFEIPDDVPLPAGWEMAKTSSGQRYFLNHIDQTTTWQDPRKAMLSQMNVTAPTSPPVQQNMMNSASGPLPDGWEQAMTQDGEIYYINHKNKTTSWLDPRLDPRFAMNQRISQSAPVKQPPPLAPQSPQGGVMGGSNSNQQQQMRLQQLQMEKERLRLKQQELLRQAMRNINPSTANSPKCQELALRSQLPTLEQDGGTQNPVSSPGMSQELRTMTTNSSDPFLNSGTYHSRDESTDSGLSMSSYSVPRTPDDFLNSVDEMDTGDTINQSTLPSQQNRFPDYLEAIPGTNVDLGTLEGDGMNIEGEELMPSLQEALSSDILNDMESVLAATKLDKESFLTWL

Target: T1, FLAG-tagged wild type AMOTL2 (Angiomotin-like 2) (UniProt Q9Y2J4)
T1 sequence: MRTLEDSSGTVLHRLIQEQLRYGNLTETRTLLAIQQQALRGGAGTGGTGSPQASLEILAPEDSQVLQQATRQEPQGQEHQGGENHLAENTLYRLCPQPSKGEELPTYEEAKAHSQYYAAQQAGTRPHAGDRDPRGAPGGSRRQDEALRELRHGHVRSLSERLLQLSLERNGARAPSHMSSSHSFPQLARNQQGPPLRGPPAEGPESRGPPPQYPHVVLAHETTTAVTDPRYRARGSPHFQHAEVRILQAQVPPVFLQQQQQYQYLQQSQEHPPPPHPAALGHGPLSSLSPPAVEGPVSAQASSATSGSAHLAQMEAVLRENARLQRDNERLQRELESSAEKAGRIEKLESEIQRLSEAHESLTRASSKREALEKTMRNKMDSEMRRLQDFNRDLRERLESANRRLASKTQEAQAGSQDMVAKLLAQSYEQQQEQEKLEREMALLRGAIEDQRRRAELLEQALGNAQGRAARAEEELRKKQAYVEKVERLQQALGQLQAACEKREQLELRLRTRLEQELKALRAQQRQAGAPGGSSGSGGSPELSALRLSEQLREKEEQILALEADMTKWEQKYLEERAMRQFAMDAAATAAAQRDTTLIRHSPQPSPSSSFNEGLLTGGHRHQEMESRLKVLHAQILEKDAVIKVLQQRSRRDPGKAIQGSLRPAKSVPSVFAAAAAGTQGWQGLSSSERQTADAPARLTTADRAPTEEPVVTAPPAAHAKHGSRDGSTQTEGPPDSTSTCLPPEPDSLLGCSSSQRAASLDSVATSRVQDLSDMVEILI
Experiment: co-IP; HEK293T cells at high cell density co-expressing FLAG-AMOTL2 forms and HA-YAP; 1 mg lysate (RIPA or nondenaturing lysis buffer: 20 mM Tris, 137 mM NaCl, 0.5% NP-40) with anti-FLAG M2 magnetic beads overnight at 4°C; eluted with FLAG peptide; anti-HA blot

binding: binds
Substance: HA-tagged YAP (Yes-associated protein 1) (from UniProt P46937 1-504)
